# From the supplement of paper PMC11438910
# The other results are listed elsewhere or left out. Only a few entries rise above the background.
# B1: 4-80.1 (protein)
# chain 1: QVQLQESGPGLVKPSETLSLTCAVSGIPISTYWWSWIRQTPEKGLEWIGEIDGNGGGTNYNPSLQSRVTFSKDASKNQFSLRLNSVTAADTAVFYCARLWGNAYWGQGVLVTVSS
# chain 2: DVVMTQSPLSLPINPGQPASISCRSSQSLVYSDGKTYLTWYQQKPGQPPRRLIYQVSKRDSGVPDRFSGSGAGTDFTLKISRVESEDVGIYYCLQGTHLPYTFGQGTKVEIK
# Tests used:
# Experiment in all cases: fluorescence intensity of antibody binding to polysaccharide-coupled beads; higher = stronger binding
# [1] = biological target: pneumococcal polysaccharide Pn31
# [2] = biological target: pneumococcal polysaccharide Pn32A
# [3] = biological target: pneumococcal polysaccharide Pn32F
# [4] = biological target: pneumococcal polysaccharide Pn33A
# [5] = biological target: pneumococcal polysaccharide Pn33B
# [6] = biological target: pneumococcal polysaccharide Pn33C
# [7] = biological target: pneumococcal polysaccharide Pn33D
# [8] = biological target: pneumococcal polysaccharide Pn33F
# [9] = biological target: pneumococcal polysaccharide Pn34
# [10] = biological target: pneumococcal polysaccharide Pn35A
# [11] = biological target: pneumococcal polysaccharide Pn35B
# [12] = biological target: pneumococcal polysaccharide Pn35C
# [13] = biological target: pneumococcal polysaccharide Pn35F
# [14] = biological target: pneumococcal polysaccharide Pn36
# [15] = biological target: pneumococcal polysaccharide Pn37
# [16] = biological target: pneumococcal polysaccharide Pn38
# [17] = biological target: pneumococcal polysaccharide Pn39
# [18] = biological target: pneumococcal polysaccharide Pn4
# [19] = biological target: pneumococcal polysaccharide Pn40
# [20] = biological target: pneumococcal polysaccharide Pn41A
# [21] = biological target: pneumococcal polysaccharide Pn41F
# [22] = biological target: pneumococcal polysaccharide Pn42
# [23] = biological target: pneumococcal polysaccharide Pn43
# [24] = antibody concentration 81.7561 ng/mL
# [25] = antibody concentration 437.17 ng/mL
# [26] = antibody concentration 2337.65 ng/mL
# [27] = antibody concentration 12500 ng/mL
# [28] = antibody concentration 0.1 ng/mL
# [29] = antibody concentration 0.534724 ng/mL
# [30] = antibody concentration 2.8593 ng/mL
# [31] = antibody concentration 15.2894 ng/mL
binder,measurement,setting,value
B1,fluorescence intensity,[1]; [24],177 MFI
same,fluorescence intensity,[1]; [25],664 MFI
same,fluorescence intensity,[1]; [26],1060 MFI
same,fluorescence intensity,[1]; [27],1230 MFI
same,fluorescence intensity,[2]; [28],17.8 MFI
same,fluorescence intensity,[2]; [29],18.2 MFI
same,fluorescence intensity,[2]; [30],17.5 MFI
same,fluorescence intensity,[2]; [31],18.5 MFI
same,fluorescence intensity,[2]; [24],17.8 MFI
same,fluorescence intensity,[2]; [25],20 MFI
same,fluorescence intensity,[2]; [26],30 MFI
same,fluorescence intensity,[2]; [27],57 MFI
same,fluorescence intensity,[3]; [28],30 MFI
same,fluorescence intensity,[3]; [29],28 MFI
same,fluorescence intensity,[3]; [30],29 MFI
same,fluorescence intensity,[3]; [31],30 MFI
same,fluorescence intensity,[3]; [24],31.5 MFI
same,fluorescence intensity,[3]; [25],36 MFI
same,fluorescence intensity,[3]; [26],53.5 MFI
same,fluorescence intensity,[3]; [27],75 MFI
same,fluorescence intensity,[4]; [28],18.5 MFI
same,fluorescence intensity,[4]; [29],17.5 MFI
same,fluorescence intensity,[4]; [30],17.8 MFI
same,fluorescence intensity,[4]; [31],20 MFI
same,fluorescence intensity,[4]; [24],33 MFI
same,fluorescence intensity,[4]; [25],106 MFI
same,fluorescence intensity,[4]; [26],233 MFI
same,fluorescence intensity,[4]; [27],444 MFI
same,fluorescence intensity,[5]; [28],18 MFI
same,fluorescence intensity,[5]; [29],18.5 MFI
same,fluorescence intensity,[5]; [30],18.5 MFI
same,fluorescence intensity,[5]; [31],18 MFI
same,fluorescence intensity,[5]; [24],18.2 MFI
same,fluorescence intensity,[5]; [25],20 MFI
same,fluorescence intensity,[5]; [26],25.5 MFI
same,fluorescence intensity,[5]; [27],36.5 MFI
same,fluorescence intensity,[6]; [28],20.5 MFI
same,fluorescence intensity,[6]; [29],19.5 MFI
same,fluorescence intensity,[6]; [30],20 MFI
same,fluorescence intensity,[6]; [31],39 MFI
same,fluorescence intensity,[6]; [24],178 MFI
same,fluorescence intensity,[6]; [25],1170 MFI
same,fluorescence intensity,[6]; [26],2180 MFI
same,fluorescence intensity,[6]; [27],2610 MFI
same,fluorescence intensity,[7]; [28],16.5 MFI
same,fluorescence intensity,[7]; [29],16.5 MFI
same,fluorescence intensity,[7]; [30],16 MFI
same,fluorescence intensity,[7]; [31],16 MFI
same,fluorescence intensity,[7]; [24],21.2 MFI
same,fluorescence intensity,[7]; [25],106 MFI
same,fluorescence intensity,[7]; [26],339 MFI
same,fluorescence intensity,[7]; [27],596 MFI
same,fluorescence intensity,[8]; [28],12.8 MFI
same,fluorescence intensity,[8]; [29],13.5 MFI
same,fluorescence intensity,[8]; [30],14.5 MFI
same,fluorescence intensity,[8]; [31],15 MFI
same,fluorescence intensity,[8]; [24],29.5 MFI
same,fluorescence intensity,[8]; [25],179 MFI
same,fluorescence intensity,[8]; [26],540 MFI
same,fluorescence intensity,[8]; [27],886 MFI
same,fluorescence intensity,[9]; [28],14.5 MFI
same,fluorescence intensity,[9]; [29],16.8 MFI
same,fluorescence intensity,[9]; [30],13.5 MFI
same,fluorescence intensity,[9]; [31],15 MFI
same,fluorescence intensity,[9]; [24],15.2 MFI
same,fluorescence intensity,[9]; [25],37 MFI
same,fluorescence intensity,[9]; [26],93 MFI
same,fluorescence intensity,[9]; [27],213 MFI
same,fluorescence intensity,[10]; [28],17 MFI
same,fluorescence intensity,[10]; [29],18 MFI
same,fluorescence intensity,[10]; [30],27 MFI
same,fluorescence intensity,[10]; [31],155 MFI
same,fluorescence intensity,[10]; [24],611 MFI
same,fluorescence intensity,[10]; [25],1800 MFI
same,fluorescence intensity,[10]; [26],2380 MFI
same,fluorescence intensity,[10]; [27],2480 MFI
same,fluorescence intensity,[11]; [28],18.2 MFI
same,fluorescence intensity,[11]; [29],18.8 MFI
same,fluorescence intensity,[11]; [30],19.5 MFI
same,fluorescence intensity,[11]; [31],23 MFI
same,fluorescence intensity,[11]; [24],44.2 MFI
same,fluorescence intensity,[11]; [25],130 MFI
same,fluorescence intensity,[11]; [26],262 MFI
same,fluorescence intensity,[11]; [27],406 MFI
same,fluorescence intensity,[12]; [28],19.5 MFI
same,fluorescence intensity,[12]; [29],20.5 MFI
same,fluorescence intensity,[12]; [30],21.2 MFI
same,fluorescence intensity,[12]; [31],28.8 MFI
same,fluorescence intensity,[12]; [24],48.2 MFI
same,fluorescence intensity,[12]; [25],134 MFI
same,fluorescence intensity,[12]; [26],222 MFI
same,fluorescence intensity,[12]; [27],288 MFI
same,fluorescence intensity,[13]; [28],18.5 MFI
same,fluorescence intensity,[13]; [29],19 MFI
same,fluorescence intensity,[13]; [30],17.8 MFI
same,fluorescence intensity,[13]; [31],19.8 MFI
same,fluorescence intensity,[13]; [24],23.8 MFI
same,fluorescence intensity,[13]; [25],45 MFI
same,fluorescence intensity,[13]; [26],77.5 MFI
same,fluorescence intensity,[13]; [27],111 MFI
same,fluorescence intensity,[14]; [28],15.5 MFI
same,fluorescence intensity,[14]; [29],19.5 MFI
same,fluorescence intensity,[14]; [30],38 MFI
same,fluorescence intensity,[14]; [31],157 MFI
same,fluorescence intensity,[14]; [24],640 MFI
same,fluorescence intensity,[14]; [25],1470 MFI
same,fluorescence intensity,[14]; [26],1880 MFI
same,fluorescence intensity,[14]; [27],2040 MFI
same,fluorescence intensity,[15]; [28],25.5 MFI
same,fluorescence intensity,[15]; [29],27.5 MFI
same,fluorescence intensity,[15]; [30],26 MFI
same,fluorescence intensity,[15]; [31],26 MFI
same,fluorescence intensity,[15]; [24],31 MFI
same,fluorescence intensity,[15]; [25],62.5 MFI
same,fluorescence intensity,[15]; [26],188 MFI
same,fluorescence intensity,[15]; [27],443 MFI
same,fluorescence intensity,[16]; [28],25 MFI
same,fluorescence intensity,[16]; [29],25.5 MFI
same,fluorescence intensity,[16]; [30],26 MFI
same,fluorescence intensity,[16]; [31],27 MFI
same,fluorescence intensity,[16]; [24],28.5 MFI
same,fluorescence intensity,[16]; [25],47.5 MFI
same,fluorescence intensity,[16]; [26],68.5 MFI
same,fluorescence intensity,[16]; [27],96.8 MFI
same,fluorescence intensity,[17]; [28],18 MFI
same,fluorescence intensity,[17]; [29],18 MFI
same,fluorescence intensity,[17]; [30],18 MFI
same,fluorescence intensity,[17]; [31],22.5 MFI
same,fluorescence intensity,[17]; [24],56 MFI
same,fluorescence intensity,[17]; [25],380 MFI
same,fluorescence intensity,[17]; [26],865 MFI
same,fluorescence intensity,[17]; [27],1170 MFI
same,fluorescence intensity,[18]; [28],17 MFI
same,fluorescence intensity,[18]; [29],18.5 MFI
same,fluorescence intensity,[18]; [30],19.8 MFI
same,fluorescence intensity,[18]; [31],23 MFI
same,fluorescence intensity,[18]; [24],41 MFI
same,fluorescence intensity,[18]; [25],148 MFI
same,fluorescence intensity,[18]; [26],300 MFI
same,fluorescence intensity,[18]; [27],450 MFI
same,fluorescence intensity,[19]; [28],18 MFI
same,fluorescence intensity,[19]; [29],16 MFI
same,fluorescence intensity,[19]; [30],17 MFI
same,fluorescence intensity,[19]; [31],17.5 MFI
same,fluorescence intensity,[19]; [24],18 MFI
same,fluorescence intensity,[19]; [25],38.2 MFI
same,fluorescence intensity,[19]; [26],103 MFI
same,fluorescence intensity,[19]; [27],229 MFI
same,fluorescence intensity,[20]; [28],22.2 MFI
same,fluorescence intensity,[20]; [29],22.5 MFI
same,fluorescence intensity,[20]; [30],23.5 MFI
same,fluorescence intensity,[20]; [31],25 MFI
same,fluorescence intensity,[20]; [24],30.5 MFI
same,fluorescence intensity,[20]; [25],93.5 MFI
same,fluorescence intensity,[20]; [26],275 MFI
same,fluorescence intensity,[20]; [27],492 MFI
same,fluorescence intensity,[21]; [28],12 MFI
same,fluorescence intensity,[21]; [29],14.5 MFI
same,fluorescence intensity,[21]; [30],24 MFI
same,fluorescence intensity,[21]; [31],101 MFI
same,fluorescence intensity,[21]; [24],522 MFI
same,fluorescence intensity,[21]; [25],1670 MFI
same,fluorescence intensity,[21]; [26],2450 MFI
same,fluorescence intensity,[21]; [27],2730 MFI
same,fluorescence intensity,[22]; [28],11 MFI
same,fluorescence intensity,[22]; [29],12 MFI
same,fluorescence intensity,[22]; [30],11 MFI
same,fluorescence intensity,[22]; [31],11.2 MFI
same,fluorescence intensity,[22]; [24],12 MFI
same,fluorescence intensity,[22]; [25],17.5 MFI
same,fluorescence intensity,[22]; [26],33.5 MFI
same,fluorescence intensity,[22]; [27],64.5 MFI
same,fluorescence intensity,[23]; [28],14.8 MFI
same,fluorescence intensity,[23]; [29],15 MFI
same,fluorescence intensity,[23]; [30],16 MFI
same,fluorescence intensity,[23]; [31],19 MFI
same,fluorescence intensity,[23]; [24],34.2 MFI
same,fluorescence intensity,[23]; [25],93.5 MFI
same,fluorescence intensity,[23]; [26],225 MFI
same,fluorescence intensity,[23]; [27],473 MFI

# Taken from the listing for reference:
binder,measurement,setting,value
B1,fluorescence intensity,[21]; [26],2450 MFI
same,fluorescence intensity,[21]; [27],2730 MFI
same,fluorescence intensity,[22]; [28],11 MFI
same,fluorescence intensity,[22]; [29],12 MFI

# Two records drawn at random from the list so far:
binder,measurement,setting,value
B1,fluorescence intensity,[13]; [24],23.8 MFI
same,fluorescence intensity,[4]; [29],17.5 MFI

# In another format: results already given.
binder	measurement	setting	value
B1	fluorescence intensity	[23]; [25]	93.5 MFI
same	fluorescence intensity	[23]; [26]	225 MFI
